Results: article PMC12715529 (ACS Bio & Med Chem Au, 2025)

Experiments:
Type in all cases: cell-based
PC-3 cells [1] = assay: Confocal laser-scanning microscopy, cellular uptake and localization; details: organelle-specific staining / confocal fluorescence
PC-3 cells [2] = assay: Colocalisation with Lysotracker Blue DND-22, scatterplot analysis; details: PC-3, 18 h, 37 °C, 100 µM + 100 nM Lysotracker Blue DND-22
A431 cells = assay: Two-photon fluorescence lifetime imaging (MP FLIM) of living A431 cells; details: A431, overnight 37 °C, 100 μM in 1:99 DMSO/serum-free medium, λex 810 nm
PC-3 cells [3] = assay: Two-photon fluorescence lifetime imaging (MP FLIM) of living PC-3 cells; details: 100 µM in 1:99 DMSO:serum-free medium, λex 810 nm
[4] = Blue ROI, overlay a (blue Lysotracker channel vs green)
[5] = Blue ROI, overlay b (blue Lysotracker channel vs red; red λex 488 nm, L-6 561 nm)
[6] = Blue ROI, overlay c (green vs red channel)
[7] = Green ROI, overlay a (blue Lysotracker channel vs green)
[8] = Green ROI, overlay b (blue Lysotracker channel vs red; red λex 488 nm, L-6 561 nm)
[9] = Green ROI, overlay c (green vs red channel)
[10] = Red ROI, overlay a (blue Lysotracker channel vs green)
[11] = Red ROI, overlay b (blue Lysotracker channel vs red; red λex 488 nm, L-6 561 nm)
[12] = Red ROI, overlay c (green vs red channel)

In the case of CC(C)C[C@H](NC(=O)[C@H](Cc1c[nH]cn1)NC(=O)CNC(=O)[C@@H](NC(=O)[C@H](C)NC(=O)[C@H](Cc1c[nH]c2ccccc12)NC(=O)[C@H](CCC(N)=O)NC(=O)[C@H](Cc1ccc(I)cc1)N1C(=O)c2ccc3c4c(ccc(c24)C1=O)C(=O)N([C@@H](Cc1ccc(I)cc1)C(=O)ON1C(=O)CCC1=O)C3=O)C(C)C)C(N)=O [L-3], the subcellular localization (PC-3 cells [1]) is reported as “localize more in the lysosomes of PC-3 cells than in the nucleus or cytosol”, the “Correlation coeff. c1” value (PC-3 cells [2]; [4]) is reported as 1.00 and the “Correlation coeff. c2” value (PC-3 cells [2]; [4]) is reported as 0.84. For the same compound, the “Mander’s overlap” value (PC-3 cells [2]; [4]) was 0.72, the “Mander’s overlap coeff. k1” value (PC-3 cells [2]; [4]) was 0.71 and the “Mander’s overlap coeff. k2” value (PC-3 cells [2]; [4]) was 0.73. The “Pearson’s correlation” value (PC-3 cells [2]; [4]) was 0.63, the “Correlation coeff. c1” value (PC-3 cells [2]; [5]) was 0.99 and the “Correlation coeff. c2” value (PC-3 cells [2]; [5]) was 1.00. The “Mander’s overlap” value (PC-3 cells [2]; [5]) was 0.73, the “Mander’s overlap coeff. k1” value (PC-3 cells [2]; [5]) was 0.06 and the “Mander’s overlap coeff. k2” value (PC-3 cells [2]; [5]) was 8.22. The “Pearson’s correlation” value (PC-3 cells [2]; [5]) was 0.71, the “Correlation coeff. c1” value (PC-3 cells [2]; [6]) was 0.75 and the “Correlation coeff. c2” value (PC-3 cells [2]; [6]) was 1.00. The “Mander’s overlap” value (PC-3 cells [2]; [6]) was 0.63, the “Mander’s overlap coeff. k1” value (PC-3 cells [2]; [6]) was 0.06 and the “Mander’s overlap coeff. k2” value (PC-3 cells [2]; [6]) was 7.06. For the same compound, the “Pearson’s correlation” value (PC-3 cells [2]; [6]) was 0.92, the “Correlation coeff. c1” value (PC-3 cells [2]; [7]) was 1.00 and the “Correlation coeff. c2” value (PC-3 cells [2]; [7]) was 0.82. The “Mander’s overlap” value (PC-3 cells [2]; [7]) was 0.71, the “Mander’s overlap coeff. k1” value (PC-3 cells [2]; [7]) was 0.85 and the “Mander’s overlap coeff. k2” value (PC-3 cells [2]; [7]) was 0.60. For the same compound, the “Pearson’s correlation” value (PC-3 cells [2]; [7]) was 0.61, the “Correlation coeff. c1” value (PC-3 cells [2]; [8]) was 1.00 and the “Correlation coeff. c2” value (PC-3 cells [2]; [8]) was 1.00. For the same compound, the “Mander’s overlap” value (PC-3 cells [2]; [8]) was 0.79, the “Mander’s overlap coeff. k1” value (PC-3 cells [2]; [8]) was 0.08 and the “Mander’s overlap coeff. k2” value (PC-3 cells [2]; [8]) was 7.66. The “Pearson’s correlation” value (PC-3 cells [2]; [8]) was 0.71, the “Correlation coeff. c1” value (PC-3 cells [2]; [9]) was 0.75 and the “Correlation coeff. c2” value (PC-3 cells [2]; [9]) was 1.00. The “Mander’s overlap” value (PC-3 cells [2]; [9]) was 0.62, the “Mander’s overlap coeff. k1” value (PC-3 cells [2]; [9]) was 0.05 and the “Mander’s overlap coeff. k2” value (PC-3 cells [2]; [9]) was 7.14. For the same compound, the “Pearson’s correlation” value (PC-3 cells [2]; [9]) was 0.92, the “Correlation coeff. c1” value (PC-3 cells [2]; [10]) was 1.00 and the “Correlation coeff. c2” value (PC-3 cells [2]; [10]) was 0.84. The “Mander’s overlap” value (PC-3 cells [2]; [10]) was 0.79, the “Mander’s overlap coeff. k1” value (PC-3 cells [2]; [10]) was 0.82 and the “Mander’s overlap coeff. k2” value (PC-3 cells [2]; [10]) was 0.77. For the same compound, the “Pearson’s correlation” value (PC-3 cells [2]; [10]) was 0.75, the “Correlation coeff. c1” value (PC-3 cells [2]; [11]) was 1.00 and the “Correlation coeff. c2” value (PC-3 cells [2]; [11]) was 1.00. For the same compound, the “Mander’s overlap” value (PC-3 cells [2]; [11]) was 0.76, the “Mander’s overlap coeff. k1” value (PC-3 cells [2]; [11]) was 0.10 and the “Mander’s overlap coeff. k2” value (PC-3 cells [2]; [11]) was 5.78. For the same compound, the “Pearson’s correlation” value (PC-3 cells [2]; [11]) was 0.79, the “Correlation coeff. c1” value (PC-3 cells [2]; [12]) was 0.74 and the “Correlation coeff. c2” value (PC-3 cells [2]; [12]) was 1.00. For the same compound, the “Mander’s overlap” value (PC-3 cells [2]; [12]) was 0.64, the “Mander’s overlap coeff. k1” value (PC-3 cells [2]; [12]) was 0.08 and the “Mander’s overlap coeff. k2” value (PC-3 cells [2]; [12]) was 5.00. For the same compound, the “Pearson’s correlation” value (PC-3 cells [2]; [12]) was 0.95, the “FLIM first lifetime distribution (τ1)” value (A431 cells) was 0.95 ± 0.06 ns and the “FLIM second lifetime distribution (τ2)” value (A431 cells) was 2.16 ± 0.08 ns. The “FLIM τ1” value (PC-3 cells [3]; PC-3, 18 h) was 2.66±0.04 ns and the “FLIM τ2” value (PC-3 cells [3]; PC-3, 18 h) was 0.00±0.00 ns.
For CC(C)C[C@H](NC(=O)[C@H](Cc1c[nH]cn1)NC(=O)CNC(=O)[C@@H](NC(=O)[C@H](C)NC(=O)[C@H](Cc1c[nH]c2ccccc12)NC(=O)[C@H](CCC(N)=O)NC(=O)[C@H](Cc1ccc(I)cc1)N1C(=O)c2ccc3c4c(ccc(c24)C1=O)C(=O)N([C@@H](Cc1ccc(I)cc1)C(=O)N[C@@H](CCC(N)=O)C(=O)N[C@@H](Cc1c[nH]c2ccccc12)C(=O)N[C@@H](C)C(=O)N[C@H](C(=O)NCC(=O)N[C@@H](Cc1c[nH]cn1)C(=O)N[C@@H](CC(C)C)C(N)=O)C(C)C)C3=O)C(C)C)C(N)=O [L-4], the subcellular localization (PC-3 cells [1]) was “localize more in the lysosomes of PC-3 cells than in the nucleus or cytosol”, the “Correlation coeff. c1” value (PC-3 cells [2]; [4]) was 0.94 and the “Correlation coeff. c2” value (PC-3 cells [2]; [4]) was 0.98. For the same compound, the “Mander’s overlap” value (PC-3 cells [2]; [4]) was 0.84, the “Mander’s overlap coeff. k1” value (PC-3 cells [2]; [4]) was 0.80 and the “Mander’s overlap coeff. k2” value (PC-3 cells [2]; [4]) was 0.87. The “Pearson’s correlation” value (PC-3 cells [2]; [4]) was 0.83, the “Correlation coeff. c1” value (PC-3 cells [2]; [5]) was 0.80 and the “Correlation coeff. c2” value (PC-3 cells [2]; [5]) was 1.00. The “Mander’s overlap” value (PC-3 cells [2]; [5]) was 0.38, the “Mander’s overlap coeff. k1” value (PC-3 cells [2]; [5]) was 0.15 and the “Mander’s overlap coeff. k2” value (PC-3 cells [2]; [5]) was 0.95. For the same compound, the “Pearson’s correlation” value (PC-3 cells [2]; [5]) was 0.60, the “Correlation coeff. c1” value (PC-3 cells [2]; [6]) was 0.93 and the “Correlation coeff. c2” value (PC-3 cells [2]; [6]) was 1.00. For the same compound, the “Mander’s overlap” value (PC-3 cells [2]; [6]) was 0.51, the “Mander’s overlap coeff. k1” value (PC-3 cells [2]; [6]) was 0.21 and the “Mander’s overlap coeff. k2” value (PC-3 cells [2]; [6]) was 1.22. For the same compound, the “Pearson’s correlation” value (PC-3 cells [2]; [6]) was 0.70, the “Correlation coeff. c1” value (PC-3 cells [2]; [7]) was 0.85 and the “Correlation coeff. c2” value (PC-3 cells [2]; [7]) was 0.99. The “Mander’s overlap” value (PC-3 cells [2]; [7]) was 0.68, the “Mander’s overlap coeff. k1” value (PC-3 cells [2]; [7]) was 0.61 and the “Mander’s overlap coeff. k2” value (PC-3 cells [2]; [7]) was 0.75. The “Pearson’s correlation” value (PC-3 cells [2]; [7]) was 0.70, the “Correlation coeff. c1” value (PC-3 cells [2]; [8]) was 0.77 and the “Correlation coeff. c2” value (PC-3 cells [2]; [8]) was 1.00. For the same compound, the “Mander’s overlap” value (PC-3 cells [2]; [8]) was 0.29, the “Mander’s overlap coeff. k1” value (PC-3 cells [2]; [8]) was 0.05 and the “Mander’s overlap coeff. k2” value (PC-3 cells [2]; [8]) was 1.54. The “Pearson’s correlation” value (PC-3 cells [2]; [8]) was 0.31, the “Correlation coeff. c1” value (PC-3 cells [2]; [9]) was 0.98 and the “Correlation coeff. c2” value (PC-3 cells [2]; [9]) was 1.00. For the same compound, the “Mander’s overlap” value (PC-3 cells [2]; [9]) was 0.73, the “Mander’s overlap coeff. k1” value (PC-3 cells [2]; [9]) was 0.15 and the “Mander’s overlap coeff. k2” value (PC-3 cells [2]; [9]) was 3.50. The “Pearson’s correlation” value (PC-3 cells [2]; [9]) was 0.73, the “Correlation coeff. c1” value (PC-3 cells [2]; [10]) was 0.98 and the “Correlation coeff. c2” value (PC-3 cells [2]; [10]) was 1.00. The “Mander’s overlap” value (PC-3 cells [2]; [10]) was 0.74, the “Mander’s overlap coeff. k1” value (PC-3 cells [2]; [10]) was 0.44 and the “Mander’s overlap coeff. k2” value (PC-3 cells [2]; [10]) was 1.25. The “Pearson’s correlation” value (PC-3 cells [2]; [10]) was 0.70, the “Correlation coeff. c1” value (PC-3 cells [2]; [11]) was 0.86 and the “Correlation coeff. c2” value (PC-3 cells [2]; [11]) was 1.00. For the same compound, the “Mander’s overlap” value (PC-3 cells [2]; [11]) was 0.45, the “Mander’s overlap coeff. k1” value (PC-3 cells [2]; [11]) was 0.34 and the “Mander’s overlap coeff. k2” value (PC-3 cells [2]; [11]) was 0.60. For the same compound, the “Pearson’s correlation” value (PC-3 cells [2]; [11]) was 0.40, the “Correlation coeff. c1” value (PC-3 cells [2]; [12]) was 0.96 and the “Correlation coeff. c2” value (PC-3 cells [2]; [12]) was 1.00. The “Mander’s overlap” value (PC-3 cells [2]; [12]) was 0.62, the “Mander’s overlap coeff. k1” value (PC-3 cells [2]; [12]) was 0.79 and the “Mander’s overlap coeff. k2” value (PC-3 cells [2]; [12]) was 0.48. For the same compound, the “Pearson’s correlation” value (PC-3 cells [2]; [12]) was 0.72, the “FLIM first lifetime distribution (τ1)” value (A431 cells) was 0.72 ± 0.05 ns and the “FLIM second lifetime distribution (τ2)” value (A431 cells) was 1.89 ± 0.11 ns. The “FLIM τ1” value (PC-3 cells [3]; PC-3, 60 min) was 2.66±0.04 ns and the “FLIM τ2” value (PC-3 cells [3]; PC-3, 60 min) was 0.00±0.00 ns.
